Experiment [1] has as its target T1, Aromatase (Homo sapiens, UniProt P11511).
T1 sequence (P11511 whole entry): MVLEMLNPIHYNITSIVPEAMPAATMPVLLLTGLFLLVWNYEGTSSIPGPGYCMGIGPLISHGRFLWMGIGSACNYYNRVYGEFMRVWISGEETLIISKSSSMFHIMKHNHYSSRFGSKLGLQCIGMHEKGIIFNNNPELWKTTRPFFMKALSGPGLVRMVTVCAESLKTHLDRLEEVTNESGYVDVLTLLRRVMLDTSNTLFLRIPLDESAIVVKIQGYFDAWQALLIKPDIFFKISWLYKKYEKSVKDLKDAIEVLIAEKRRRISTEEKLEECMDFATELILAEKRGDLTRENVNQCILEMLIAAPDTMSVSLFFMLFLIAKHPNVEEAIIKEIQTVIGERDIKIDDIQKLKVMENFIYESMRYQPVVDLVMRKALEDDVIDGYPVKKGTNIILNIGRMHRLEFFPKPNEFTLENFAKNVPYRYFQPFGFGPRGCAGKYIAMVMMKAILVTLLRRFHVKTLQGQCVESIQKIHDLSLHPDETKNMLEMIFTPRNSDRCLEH

For experiment [2], the species on record is Homo sapiens. Kind of experiment: Ratio between inhibitory concentration of cytochrome P450 11B1 to cytochrome P450 11B2. In short, it runs like this:
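Confluent V79 MZh hamster lung fibroblasts expressing human CYP11B1 or CYP11B2, in DMEM. Preincubated 60 min at 37 °C with inhibitor at three or more concentrations. [4-14C]11-deoxycorticosterone substrate, 100 nM. Incubation 120 min for CYP11B1 and 40 min for CYP11B2; controls without inhibitor. Ethyl acetate extraction, then HPTLC with phosphoimager quantification, giving IC50.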

This note sets out measurements from ChEMBL document CHEMBL1141125, “Heteroaryl-substituted naphthalenes and structurally modified derivatives: selective inhibitors of CYP11B2 for the treatment of congestive heart failure and myocardial fibrosis” (J Med Chem, 2005).

On to `Oc1ccc2cc(-c3cccnc3)ccc2c1`, for which the IC50 in experiment [1] is more than 36 µM.

Turning to `c1ccc2cc(-n3ccnc3)ccc2c1`, the Selectivity factor in experiment [2] was 35.
